The record followed here is patent US20030004092A1.

Sequences of proteins named here, by UniProt entry; tags and fusion partners are left off.
UniProt P01108: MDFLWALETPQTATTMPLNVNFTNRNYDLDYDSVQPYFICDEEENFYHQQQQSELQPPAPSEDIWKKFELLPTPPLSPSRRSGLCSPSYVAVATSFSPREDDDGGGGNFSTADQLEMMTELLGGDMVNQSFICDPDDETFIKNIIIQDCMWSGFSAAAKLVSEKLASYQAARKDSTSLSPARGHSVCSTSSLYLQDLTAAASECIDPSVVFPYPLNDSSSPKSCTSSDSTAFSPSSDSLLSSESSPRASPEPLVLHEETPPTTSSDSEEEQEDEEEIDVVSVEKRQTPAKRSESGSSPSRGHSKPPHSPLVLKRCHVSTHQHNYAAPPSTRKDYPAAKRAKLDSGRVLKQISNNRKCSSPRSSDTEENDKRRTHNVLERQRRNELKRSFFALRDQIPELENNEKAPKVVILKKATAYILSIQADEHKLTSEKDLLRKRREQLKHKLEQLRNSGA

Results are given in words; binding and its absence hold for the method and conditions named. Binding seen in cells or lysates may run through a third protein. Some entries that bind do so weakly or less than the wild type. Tags and fused reporters may be left off the sequences shown.

The test deals with T1, GST-cdr2 fusion protein containing amino acids 16-192 of human cdr2 (human) (UniProt Q01850).
T1 sequence: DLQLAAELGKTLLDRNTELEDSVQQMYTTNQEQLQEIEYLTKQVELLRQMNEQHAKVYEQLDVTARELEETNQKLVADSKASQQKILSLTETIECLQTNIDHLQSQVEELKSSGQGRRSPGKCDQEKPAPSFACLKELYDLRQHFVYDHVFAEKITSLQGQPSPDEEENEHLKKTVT
Nature of the test: GST pull-down, fluorography.

“full length in vitro translated ^35S-labeled mouse Myc (from UniProt P01108 1-454)”: the binding entry is listed as “binds”.
